From publication PMC10944485, “Structure of full-length ERGIC-53 in complex with MCFD2 for cargo transport” (Nature Communications, 2024)
Results are given in words; binding and its absence hold for the method and conditions named. Some results given as binding are weak or reduced against the parent protein; the word gives no strength.

Molecular target: ERGIC-53 ΔL1 mutant (lacking the L1 loop between S-H1 and S-H2, Gln313 to Glu322) (human) (UniProt P49257)
Assay: non-reducing SDS-PAGE with Western blot; lysate of transfected ERGIC-53 KO cells on a nonreducing SDS gel; migration pattern compared with the WT

binding: binds
B1: ERGIC-53 ΔL1 mutant (lacking the L1 loop between S-H1 and S-H2, Gln313 to Glu322) (receptor, UniProt P49257)
chain: DGVGGDPAVALPHRRFEYKYSFKGPHLVQSDGTVPFWAHAGNAIPSSDQIRVAPSLKSQRGSVWTKTKAAFENWEVEVTFRVTGRGRIGADGLAIWYAENQGLEGPVFGSADLWNGVGIFFDSFDNDGKKNNPAIVIIGNNGQIHYDHQNDGASQALASCQRDFRNKPYPVRAKITYYQNTLTVMINNGFTPDKNDYEFCAKVENMIIPAQGHFGISAATGGLADDHDVLSFLTFQLTEPGKEPPTPDKEISEKEKEKYQEEFEHFQQELDKKKEEFQKGHPFESVGDRELRQVFEGQNRIHLEIKQLNRQLDMILDEQRRYVSSLTEEISKRGAGMPGQHGQITQQELDTVVKTQHEILRQVNEMKNSMSETVRLVSGMQHPGSAGGVYETTQHFIDIKEHLHIVKRDIDNLVQRNMPSNEKPKCPELPPFPSCLSTVHFIIFVVVQTVLFIGYIMYRSQQEAAAKKFF
